Measured values as given in US20120201757A1 (published 2012).

Sequences of proteins named here, by UniProt entry; tags and fusion partners are left off. Residues count along the entry.
UniProt P05067, 672-711 limits assumed: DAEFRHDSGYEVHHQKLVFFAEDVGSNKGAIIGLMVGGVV

Legend:
[1] = molecular target: T1, human Aβ40 (human, UniProt P05067 672-711); test: plate binding assay, Abs (450nm), Aβ40 titrated 0-25 nM
T1 construct: domain: Aβ1-40; also called Aβ1-40; amyloid-beta peptide 1-40

[2] = molecular target: tPA (human, UniProt P00750 36-562, limits assumed); test: plate binding assay, Abs (450nm), ligand titrated 0-200 nM on immobilized GAR-LRPIV

B1: GAR-LRPIV (receptor)
chain: GARSNCTASQFVCKNDKCIPFWWKCDTEDDCGDHSDEPPDCPEFKCRPGQFQCSTGICTNPAFICDGDNDCQDNSDEANCDIHVCLPSQFKCTNTNRCIPGIFRCNGQDNCGDGEDERDCPEVTCAPNQFQCSITKRCIPRVWVCDRDNDCVDGSDEPANCTQMTCGVDEFRCKDSGRCIPARWKCDGEDDCGDGSDEPKEECDERTCEPYQFRCKNNRCVPGRWQCDYDNDCGDNSDEESCTPRPCSESEFSCANGRCIAGRWKCDGDHDCADGSDEKDCTPRCDMDQFQCKSGHCIPLRWRCDADADCMDGSDEEACGTGVRTCPLDEFQCNNTLCKPLAWKCDGEDDCGDNSDENPEECARFVCPPNRPFRCKNDRVCLWIGRQCDGTDNCGDGTDEEDCEPPTAHTTHCKDKKEFLCRNQRCLSSSLRCNMFDDCGDGSDEEDCSI
notes: Soluble, untagged cluster IV (CR21-CR31) of human LRP-1, secreted from CHO cells through a tPA signal peptide and purified on a GST-RAP column; also called wt-LRPIV; WT-LRPIV
- EC50 (read off the curve) [1]: ~2 nM
- binding result [2]: binds
